These are yes or no findings as the source states them, for the method shown. Some entries that bind do so weakly or less than the wild type. Sequences can lack the tags named with a protein.
Experiments:
[1] = target: T1, soluble recombinant mouse MAdCAM-1-Fc (mouse) (UniProt Q61826); experiment: cell adhesion assay, Mn++ or PMA-activated H9 cells on slides coated with MAdCAM-1-Fc
T1 sequence (looked up): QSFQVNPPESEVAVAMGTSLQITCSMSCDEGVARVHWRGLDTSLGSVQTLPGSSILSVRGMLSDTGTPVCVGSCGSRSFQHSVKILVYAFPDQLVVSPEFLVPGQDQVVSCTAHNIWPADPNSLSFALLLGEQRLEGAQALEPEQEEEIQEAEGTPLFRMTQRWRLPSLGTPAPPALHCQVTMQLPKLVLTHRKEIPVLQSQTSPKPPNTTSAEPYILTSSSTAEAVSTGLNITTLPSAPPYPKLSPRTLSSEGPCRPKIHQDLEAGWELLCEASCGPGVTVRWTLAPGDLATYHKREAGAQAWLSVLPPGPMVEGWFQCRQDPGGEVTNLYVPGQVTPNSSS

Amino acid sequences for entries named in this document (tags omitted). A change or cut given only in a name is not applied to a line headed by its entry.
UniProt P13612: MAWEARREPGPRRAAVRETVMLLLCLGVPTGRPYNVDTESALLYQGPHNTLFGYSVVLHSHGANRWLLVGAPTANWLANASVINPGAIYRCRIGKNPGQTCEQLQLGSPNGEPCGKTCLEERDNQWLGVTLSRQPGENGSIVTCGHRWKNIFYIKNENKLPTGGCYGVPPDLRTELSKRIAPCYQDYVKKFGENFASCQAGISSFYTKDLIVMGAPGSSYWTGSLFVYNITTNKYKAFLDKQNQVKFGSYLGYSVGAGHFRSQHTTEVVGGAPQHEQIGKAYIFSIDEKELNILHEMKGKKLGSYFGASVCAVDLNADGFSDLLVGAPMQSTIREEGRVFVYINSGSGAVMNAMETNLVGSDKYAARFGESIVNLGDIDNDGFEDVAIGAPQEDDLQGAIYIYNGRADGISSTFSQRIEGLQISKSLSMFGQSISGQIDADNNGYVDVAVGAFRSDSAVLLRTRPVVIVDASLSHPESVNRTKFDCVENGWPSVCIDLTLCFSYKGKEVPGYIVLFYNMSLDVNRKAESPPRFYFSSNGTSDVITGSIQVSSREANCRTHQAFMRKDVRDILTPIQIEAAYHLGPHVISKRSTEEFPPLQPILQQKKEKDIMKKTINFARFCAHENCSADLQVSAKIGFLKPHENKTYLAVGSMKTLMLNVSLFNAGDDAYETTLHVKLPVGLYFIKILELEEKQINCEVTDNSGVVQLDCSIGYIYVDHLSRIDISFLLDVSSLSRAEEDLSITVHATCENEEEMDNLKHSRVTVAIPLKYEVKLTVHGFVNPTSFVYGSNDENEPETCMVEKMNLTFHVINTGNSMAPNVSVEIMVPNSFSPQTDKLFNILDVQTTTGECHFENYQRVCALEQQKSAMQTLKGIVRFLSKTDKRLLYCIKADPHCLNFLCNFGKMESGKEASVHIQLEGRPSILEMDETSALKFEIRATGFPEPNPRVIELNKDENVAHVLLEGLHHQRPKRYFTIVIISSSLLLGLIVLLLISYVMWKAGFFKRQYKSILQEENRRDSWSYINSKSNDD
UniProt Q00651: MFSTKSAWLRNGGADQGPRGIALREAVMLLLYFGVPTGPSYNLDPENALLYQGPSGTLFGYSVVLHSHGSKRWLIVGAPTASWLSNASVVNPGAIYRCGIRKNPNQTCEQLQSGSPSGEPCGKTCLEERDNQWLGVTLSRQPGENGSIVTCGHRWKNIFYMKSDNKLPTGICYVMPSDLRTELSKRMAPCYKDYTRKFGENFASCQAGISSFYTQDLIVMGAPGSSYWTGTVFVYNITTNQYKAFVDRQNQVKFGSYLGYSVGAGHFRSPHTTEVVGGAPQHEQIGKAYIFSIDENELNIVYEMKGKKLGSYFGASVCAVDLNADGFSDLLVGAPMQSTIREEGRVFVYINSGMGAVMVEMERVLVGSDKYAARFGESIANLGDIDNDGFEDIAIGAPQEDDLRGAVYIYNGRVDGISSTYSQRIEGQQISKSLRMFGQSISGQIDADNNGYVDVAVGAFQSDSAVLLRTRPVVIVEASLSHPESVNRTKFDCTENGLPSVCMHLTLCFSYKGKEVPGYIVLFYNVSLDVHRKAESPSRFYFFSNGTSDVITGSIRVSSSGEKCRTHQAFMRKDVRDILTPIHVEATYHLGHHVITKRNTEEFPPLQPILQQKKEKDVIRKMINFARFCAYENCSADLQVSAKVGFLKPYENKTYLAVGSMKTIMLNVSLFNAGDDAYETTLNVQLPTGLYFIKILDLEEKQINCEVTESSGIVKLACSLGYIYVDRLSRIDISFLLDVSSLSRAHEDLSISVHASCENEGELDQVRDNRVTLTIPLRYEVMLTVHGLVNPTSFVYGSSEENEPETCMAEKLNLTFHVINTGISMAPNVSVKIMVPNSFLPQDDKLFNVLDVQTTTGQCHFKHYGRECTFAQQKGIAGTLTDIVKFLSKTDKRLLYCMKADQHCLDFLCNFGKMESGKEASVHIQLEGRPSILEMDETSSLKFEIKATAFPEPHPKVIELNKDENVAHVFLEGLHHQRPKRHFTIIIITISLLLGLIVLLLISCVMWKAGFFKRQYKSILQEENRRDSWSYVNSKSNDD

[2] = target: T1, soluble recombinant mouse MAdCAM-1-Fc (mouse); experiment: cell adhesion assay, activated cells adhered to coated slides before the peptide was added
[3] = target: T2, soluble human VCAM-1-Fc chimera (human) (UniProt P19320); experiment: as above
T2 sequence (looked up): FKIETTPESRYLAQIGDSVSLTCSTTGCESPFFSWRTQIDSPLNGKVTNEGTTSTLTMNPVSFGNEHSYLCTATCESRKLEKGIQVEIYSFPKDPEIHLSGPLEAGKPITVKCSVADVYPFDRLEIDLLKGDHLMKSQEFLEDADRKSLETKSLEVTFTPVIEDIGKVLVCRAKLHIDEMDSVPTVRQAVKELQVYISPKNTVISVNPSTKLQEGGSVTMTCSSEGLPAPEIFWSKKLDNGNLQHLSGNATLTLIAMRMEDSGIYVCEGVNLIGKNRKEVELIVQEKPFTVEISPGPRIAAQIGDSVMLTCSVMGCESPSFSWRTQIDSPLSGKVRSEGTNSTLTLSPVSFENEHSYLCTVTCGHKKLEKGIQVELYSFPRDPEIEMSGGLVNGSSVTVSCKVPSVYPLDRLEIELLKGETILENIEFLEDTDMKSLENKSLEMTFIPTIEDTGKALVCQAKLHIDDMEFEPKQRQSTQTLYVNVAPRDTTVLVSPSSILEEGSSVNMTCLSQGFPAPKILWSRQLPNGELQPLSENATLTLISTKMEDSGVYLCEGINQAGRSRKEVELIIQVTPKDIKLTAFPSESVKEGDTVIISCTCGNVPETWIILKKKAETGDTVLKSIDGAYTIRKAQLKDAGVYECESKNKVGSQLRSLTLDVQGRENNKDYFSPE

[4] = target: T1, soluble recombinant mouse MAdCAM-1-Fc (mouse); experiment: cell adhesion assay, activated TK-1 cells on slides coated with MAdCAM-1-Fc
[5] = target: T2, soluble human VCAM-1-Fc chimera (human); experiment: cell adhesion assay, activated TK-1 cells on slides coated with VCAM-1-Fc

Measured: binding

integrin α4β7 on human H9 T lymphoma cells (from UniProt P13612 34-1032; P26010 20-798) (receptor)
binds: [1] | [2]

integrin α4β7 on mouse TK-1 T lymphoma cells (from UniProt Q00651 41-1039; P26011 20-806) (receptor)
not listed: [1]
binds: all other assays above

— patent publication US20090181900A1
